Measured values from patent US11541019B2, “Compositions for use in the treatment of diabetes” (University of Ulster, priority 2015, dated 2023).

Tested on: high fat fed diabetic NIH Swiss mice
Test: Long-term daily oral administration in high fat fed diabetic mice
Format: in vivo
Details: HFF mice, DEXA
Protocol: […] In order to confirm diabetes, an oral glucose tolerance test (OGTT) was performed. Food intake, fluid intake, body weight, non-fasted plasma glucose and insulin concentrations were monitored every 2- to 4-days as indicated in the accompanying drawings. At the end of the study, glucose tolerance (18 mmol/kg body weight) and insulin sensitivity (25 U/kg body weight) were assessed. Mice were anesthetised by isoflurane and killed by cervical dislocation. Dual energy X-ray absorption (DEXA) scanning was performed after prior calibration and quality control with the aluminium/lucite phantom (0.069 g/cm2, 12.0% fat) using a PIXImus system (software version 1.4x).

CCCCCCCCCCCC1=C(O)C(=O)C=C(O)C1=O [Embelin, 2,5-dihydroxy-3-undecylcyclohexa-2,5-diene-1,4-dione]
no change: body mineral density | bone area | bone mineral content

c1ccc2c(Cc3c[nH]c4ccccc34)c[nH]c2c1 [Diindolylmethane, 3,3′-methanediylbis(1H-indole)]
no change: body mineral density | bone area | bone mineral content
